Consider 4 molecules from PMC6029062.

The target in one assay is T1, GST-fused integrin β7 CT (UniProt P26010).
T1 sequence: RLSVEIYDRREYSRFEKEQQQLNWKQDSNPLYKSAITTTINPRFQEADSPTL
The assay is described as follows: pull-down; purified GST-fused β CT proteins on Glutathione Sepharose 4B beads, incubated with lysates of HUVECs expressing EGFP-β3-endonexin overnight at 4 °C; Western blotting of the precipitates; only the target purified.

Assay [1] has as its target β3-endonexin (yeast two-hybrid fusion in pGBKT7). As to the kind of experiment: two-hybrid; Matchmaker Gold Yeast Two-hybrid system; β3-endonexin or kindlin-2 in pGBKT7, integrin β CTs in pGADT7; serial dilution on SD-3 selection media (−Leu/−Trp/−His).

Results are given in words; binding and its absence hold for the method and conditions named. For some of these results: In cells and extracts the contact can be indirect. Where a sequence is shown, tags or fusion partners need not be part of it.

Turning to EGFP-β3-endonexin, the binding entry with GST-fused integrin β7 CT is reported as “no binding”.
As for KLLMIIHDRREFAKFEKEKMNAKWDTGENPIYKSAVTTVVNPKYEGK (domain or fragment) [integrin β1 CT (yeast two-hybrid fusion in pGADT7)], the binding result in assay [1] is listed as “no binding”.

B1: integrin β7 CT (yeast two-hybrid fusion in pGADT7) (domain or fragment, UniProt P26010 747-798)
chain: T1 sequence
For B1, the binding entry in assay [1] was “no binding”.
With KALIHLSDLREYRRFEKEKLKSQWNNDNPLFKSATTTVMNPKFAES (domain or fragment) [integrin β2 CT (yeast two-hybrid fusion in pGADT7)], in assay [1], the binding result is on record as “no binding”.
